This is one part of the list.

Sequences of proteins named here, by UniProt entry; tags and fusion partners are left off.
UniProt Q0JBA9, entry or part of it: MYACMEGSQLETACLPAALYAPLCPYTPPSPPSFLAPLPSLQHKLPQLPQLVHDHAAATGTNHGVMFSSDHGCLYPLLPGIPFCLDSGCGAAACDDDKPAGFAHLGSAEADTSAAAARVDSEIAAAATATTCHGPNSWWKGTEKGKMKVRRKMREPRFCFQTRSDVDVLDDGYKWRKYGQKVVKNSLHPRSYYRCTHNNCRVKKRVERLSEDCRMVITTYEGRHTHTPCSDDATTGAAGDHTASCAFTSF

Experimental findings from paper PMC7819943, “Rice protein-binding microarrays: a tool to detect cis-acting elements near promoter regions in rice” are described below.

This test deals with OsWRKY34 (Oryza sativa, UniProt Q0JBA9 1-250). Nature of the test: protein-binding microarray (RPBM); PBS, 2% BSA, 51.3 ng/ul salmon testes DNA, 50 uM zinc acetate, 200 nM TF, 25 C, 1 h; high values mean tight binding. To be noted: protein: recombinant; tags: N-terminal polyhistidine and DsRed monomer fusion (pET32a); label: CyDye5-dUTP incorporated in the synthesized complementary strand; 3' TTTTT single-stranded linker to array surface; dsDNA, one strand shown. An outline of the steps:
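Binding signal is defined as the fluorescence intensity of each feature in arbitrary units, read on an Axon 4000B scanner. Transcription factors with N-terminal polyhistidine and DsRed fusions came from E. coli BL21-CodonPlus and were purified on Ni–NTA. They were incubated at 200 nM for 1 h at 25 °C on a custom Agilent array that had been made double-stranded with Cy5-dUTP, with 50 µM zinc acetate present, and the array was washed.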
“AGGAATCGTAAACTGCAAAACATCCTTTTCACATTCCTACCGGAGTCACCTAGTGCAG”: the binding signal is 9000 fluorescence intensity (a.u.).
Turning to “TCTTCGTATAAAAAGTATGACGCCGTTGACTTTTCATATACGGAGTCACCTAGTGCAG”, the binding signal is 14500 fluorescence intensity (a.u.).
For “GGAGGTGGTGGTGGTGGAGGCATCGCCGACGACAAGTACCCGGAGTCACCTAGTGCAG” the value was 12500 fluorescence intensity (a.u.); for “CACACCTGGTACATATGGATGTTCTGGCTGGTATCTGGTACGGAGTCACCTAGTGCAG”, 8420 fluorescence intensity (a.u.).
As to “CTCATCCATCACTTTCTTTGTCCATCTCGACCTGAGAATTCGGAGTCACCTAGTGCAG”, the binding signal was 8880 fluorescence intensity (a.u.).
With “ACTCTCCCGTTATTGCCGCCACCGGACCGCTAGCTCCGCACGGAGTCACCTAGTGCAG” the figure was 9570 fluorescence intensity (a.u.).
For “TGGATGGCCTTTTGTCTCTTTGTATATTATATATTTAGTTCGGAGTCACCTAGTGCAG” the value was 8260 fluorescence intensity (a.u.); for “TGTCAACCCGCGCCTCCGATTTCTCCAGCTTTTCTTTCCCCGGAGTCACCTAGTGCAG”, 12800 fluorescence intensity (a.u.).
Consider “TACTTGCACTTTACTATATTCTTGCTGTTACGCACCACATCGGAGTCACCTAGTGCAG”, for which the binding signal was 14600 fluorescence intensity (a.u.).
Consider “CTCTCGCGCCAAGCCGGCCTCCATCTTCGCCGCCCGCGCCCGGAGTCACCTAGTGCAG”, for which the binding signal is 11300 fluorescence intensity (a.u.).
For “TCTCAACAGCTCCTTCAGTACCATCTTCACTCTTTTTCATCGGAGTCACCTAGTGCAG” the value was 8060 fluorescence intensity (a.u.).
For “GCGTACTTTACTATACTTTAGCCATTCCACATCAGTCCGTCGGAGTCACCTAGTGCAG”, the binding signal was 8320 fluorescence intensity (a.u.).
With “GTACAGTTCCTCCTCCTCCGGTCTCTCTCACCTGTCTGTCCGGAGTCACCTAGTGCAG” the figure was 10500 fluorescence intensity (a.u.); with “ATAAGACGAACGGTCAAACATGTGCTAAAAAAGTCAACGGCGGAGTCACCTAGTGCAG”, 11300 fluorescence intensity (a.u.); with “TGAGTAATGTTTTTTTCACTGAATATTCTTTAATGTTAATCGGAGTCACCTAGTGCAG”, 8790 fluorescence intensity (a.u.).
For “GGTTGGCAGCGGCGGCGGAGGTGGGGAGAGGCGGGTGGTTCGGAGTCACCTAGTGCAG” the value was 13600 fluorescence intensity (a.u.); for “ATTGCTTCCTTTTCCAACACCGCCTTTTAACCCTAAAAACCGGAGTCACCTAGTGCAG”, 9550 fluorescence intensity (a.u.).
Consider “ACGGACACGTGCCGGTGAGGGATGGGTTTGAATGGTTTGACGGAGTCACCTAGTGCAG”, for which the binding signal was 9890 fluorescence intensity (a.u.).
For “ATCCACAGCGGCCAGCCGGCCACCGACCCCTGGTCCAATCCGGAGTCACCTAGTGCAG” the value was 8800 fluorescence intensity (a.u.).
Turning to “GCCACCACCAAGCCTTTGGTTTCTTTCACGCGCGCTCGCCCGGAGTCACCTAGTGCAG”, the binding signal is 9640 fluorescence intensity (a.u.).
For “TCTTGTTCTGCCTCTCTGTCTGGCGACTGGCGTCGTCGCTCGGAGTCACCTAGTGCAG” the value was 11000 fluorescence intensity (a.u.); for “GTGCGCCATATCGATCACGTATACGTACGCGCGCGTGTTCCGGAGTCACCTAGTGCAG”, 10200 fluorescence intensity (a.u.).
For the sequence “ATGGATTTGGGAATTTGGGTGGGCGCGGAGCTCCTGATTCCGGAGTCACCTAGTGCAG”, the binding signal is 9550 fluorescence intensity (a.u.).
Regarding “CATAAACTCATTTTCATCCATCACCCGTCATCCCACAGCTCGGAGTCACCTAGTGCAG”, the binding signal is 11300 fluorescence intensity (a.u.).
With “CGATATCCGGTCAAACGTTCGCTGTGACATCCAAAATTTTCGGAGTCACCTAGTGCAG” the figure was 9580 fluorescence intensity (a.u.).
For “AGCCACCACAGCCATCGCCCGTTCTTCCCGCCGGCCTATCCGGAGTCACCTAGTGCAG” the value was 9990 fluorescence intensity (a.u.).
For “ATGATAAAGTTTCCGTACTTTTTCGATCCGTTTTCATCCCCGGAGTCACCTAGTGCAG” the value was 8350 fluorescence intensity (a.u.).
As to “ATTTTATTTTCAATTTTTTAGAACCGTTTGATTGGTATTTCGGAGTCACCTAGTGCAG”, the binding signal was 8620 fluorescence intensity (a.u.).
For “TTCCTTTTTTTCCCATCTTTATCCACCGCTTCTCAGCCTCCGGAGTCACCTAGTGCAG” the value was 10300 fluorescence intensity (a.u.); for “GCTGCTCGAGCGAGCGCGCACACACTATCACAGGGAGGGGCGGAGTCACCTAGTGCAG”, 8920 fluorescence intensity (a.u.).
With “TGTTGGCTTGTATATATCTGTCTAGATCTTTCTTCTCACTCGGAGTCACCTAGTGCAG” the figure was 11000 fluorescence intensity (a.u.); with “ATTATTATTTATTTTATTTGTGACTTACTTTATTATCCAACGGAGTCACCTAGTGCAG”, 9000 fluorescence intensity (a.u.); with “TTATTTATTAATCTGTTGTATATTCTGCACTATCATTCCTCGGAGTCACCTAGTGCAG”, 9020 fluorescence intensity (a.u.).
For “TCCTCTGTTTTACACTTGCATTCCTATCAGAATCCTATATCGGAGTCACCTAGTGCAG” the value was 9540 fluorescence intensity (a.u.).
For the sequence “GTTCTTGAACTGCCTCTAGTATGAGAAATTTTTTTTTTTACGGAGTCACCTAGTGCAG”, the binding signal was 9530 fluorescence intensity (a.u.).
For the sequence “TAGTATTTTTTTCCTTGGTTTTGTTTCTATCTCCTCTGACCGGAGTCACCTAGTGCAG”, the binding signal is 9480 fluorescence intensity (a.u.).
For “TACTTCTATGCAATATATGGACCATCATCTATTACCTAATCGGAGTCACCTAGTGCAG” the value was 8150 fluorescence intensity (a.u.); for “TCTTCTTGTTTGCTGATCTTGTTCCTTGGTGGAAGGATGCCGGAGTCACCTAGTGCAG”, 9990 fluorescence intensity (a.u.); for “GTCCACTGTTTTATTCGGCCATATGAGGCCTTCGATTCAGCGGAGTCACCTAGTGCAG”, 8250 fluorescence intensity (a.u.).
With “ATCTCATCCGTCCGCTGTACACCGTAGCTCTATCTCTTCCCGGAGTCACCTAGTGCAG” the figure was 11500 fluorescence intensity (a.u.); with “AAACACCTCTTTGGCCTGGTTTAGTTTCTAACTTTTTCTTCGGAGTCACCTAGTGCAG”, 8780 fluorescence intensity (a.u.); with “GCGCGAGAAATTTGTCCTAAATCCCACCATTACCGCGGCCCGGAGTCACCTAGTGCAG”, 8390 fluorescence intensity (a.u.).
